# Results taken from paper PMC6884526.
# Target: dynein intermediate chain (endogenous, mouse brain) (mouse (endogenous in whole brain))
# Test: co-IP; anti-DIC antibody on Protein G Dynabeads, mouse whole brain crude light membrane fraction, 16 h at 4 °C in PBS pH 7.4 with 2 mM EDTA and 0.1% BSA; mouse IgG control
binder,measurement,value
"GM130 (endogenous, mouse brain) (protein, UniProt Q921M4 1-999) MWPPRFPPPRPGMSEETRQSKLAAAKKKLREYQQKNSPGVPAGAKKKKKIKNGHSPERPTASDCQSPENVPTDHIAPAPPTAATDTMFLGVTPSPDADLTQSHDAGNCSNLMEETKTFSSTESLRQLSQQLNGLVSESTSYINGEGLTSSNMKELENRYQELAVALDSSYVTNKQLSSTIEELKQQNQDTLDQLEKEKKDYQQKLAKEQGSLREQLQVHIQTIGILVSEKAELQTALAHTQQAARQKAGESEDLASRLQSSRQRVGELERTLSTVSTQQKQADRYNKDLTKERDALKLELYKNSKSNEDLRQQNSELEEKLRVLVAEKAAAQLGVEELQKKLEMSELLLQQFSSQSSAAGGNEQLQHAMEERAQLETHVSQLMESLKQLQVERDQYAENLKGESAMWQQRVQQMAEQVHTLKEEKEHRERQVQELETSLAALRSQMEEPPPPEPPAGPSEAEEQLQGEVEQLHKELERLTGQLRAQVQDNESLSHLNREQEGRLLELEREAQRWSEQAEERKQILESMQSDRTTISRALSQNRELKEQLAELQNGFVRLTNENMEITSALQSEQHVKKELARKLGELQERLGELKETVELKSQEAQGLQEQRDQCLSHLQQYAAAYQQHLAAYEQLTSEKEAIHKQLLLQTQLMDQLQHEEVQGKMAAELARQELQEAQERLKATSQENQQLQAQLSLLVLPGEGDVDQEEEDEEVPQSSLAIPEDLDSREAMVAFFNAAIARAEEEQARLRVQLKEQKARCRSLSHLAAPVQSKLEKEAVVPRNVDDSASEESNQALHVAMEKLQSRFLEVMQEKVELKERVEELEHCCIQLSGETDTIGEYIALYQNQRAVLKARHLEKEEYISRLAQDKEEMKVKLLELQELVLRLVNERNEWQGKFLAVSQNPGDVLTPVPTGSQEFGAADQQDDLREVSLADDIEPAQGEAGVPAPHENPTAQQIMQLLREIQNPRERPGLGSNPCIPFFYRADENDEVKIMVV",binding,no binding

# No constants are given. Whether binding was seen depends on the method and setting. Binding seen in cells or lysates may run through a third protein.
